Measured values reported in publication PMC10127613 (mBio, 2023).
Weaker means in comparison with the reference protein, sequence or condition of that experiment. Protein sequences can lack the tags named with them.

Molecular target: T1, Clr (Sinorhizobium meliloti) (UniProt Q92SD2)
T1 sequence (looked up): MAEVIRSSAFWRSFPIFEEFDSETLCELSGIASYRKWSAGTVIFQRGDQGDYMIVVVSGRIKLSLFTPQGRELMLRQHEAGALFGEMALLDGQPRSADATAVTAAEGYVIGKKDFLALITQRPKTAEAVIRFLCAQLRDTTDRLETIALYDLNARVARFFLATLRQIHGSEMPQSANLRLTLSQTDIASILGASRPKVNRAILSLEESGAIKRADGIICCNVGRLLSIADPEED
Test: EMSA
Settings: 1 mM cAMP, EMSA: 2 mM HEPES pH 7.0, 30 mM NaCl, 50 mM KCl, 850 ng salmon sperm DNA, 1 ug BSA, 20 ng Cy3-DNA, 3 ug Clr in 10 uL, room temperature, recombinant protein, residues 1-234, protein details: C-terminal His6 (pET36b, NdeI/XhoI), label: 5'-Cy3 on reverse strand

Sequence | binding result
AGCGGATAACAATTTCACACAGGAAACAGCATATGACCATGATTACGCCAAGCTCGAAATTAACCCTCACTAAAGGGAACAAAAGCTGGAGCTCGGAGACCGTGTTTCCGTTAAGAAATCATTAGGATTTTAATGAATGGGGAACGCTCATAATTGTAAGAGCCCGGCTAATGTGTCACTACGATACGATTAGGAACGGGTCCGTATATGAAAATGGCAACTGTTCCGGTGGATAAGCTGCGTCACAAGGTGTCGCAGGGCATAGGCTGCGGCTATCCATCGAGGCGATGTAATGGGTGATCAGTCAATCTATGGCTTCATTGCGAAGCTTGGACCTTGCGGTCACCGCCCTGGTTCGGATGTTCCGCTGGGCACCTGGCGGCACAGGAAGACGGCCATCATCGGGCAATAGTAGTGAGGCGTATCCGTATGGCGACGAAGAAGACCAACTCTAGACTGCAGATGGTGAGCAAGGGCGAGGAGCTGTTCA (double strand) [SMc00190] | binds more weakly
AGCGGATAACAATTTCACACAGGAAACAGCATATGACCATGATTACGCCAAGCTCGAAATTAACCCTCACTAAAGGGAACAAAAGCTGGAGCTCGTGGACTGAAGTGGCGGACAGAGAGGGATTCGAACCCTCGATACGCTTTCACGTATACACGCGTTCCAGGCGTGCGCCTTCAACCACTCGGCCACCTGTCCATCCTTCTGCAGCCGGCGGTCGATCCGGCTGGATGGGGAAAAGCGAAGCTTCTCCGCGTCACCGGTGAAACCGGGAGACGGGCGCGATATATACCGATGATGCGCGCGGGATCAACTGGTTTCTGACATATTATTGACATGCCTTGAAAGGTGCTGCGGATGACCGGCCATTGCGCTTGCCCGCCCTTGCGCCTATCTCTTGCGCAGGACGAGCCGAAAGGGGGAGCGGATGCGGTTGCTGCTGCGGTTTTCTAGACTGCAGATGGTGAGCAAGGGCGAGGAGCTGTTCA (double strand) [SMc02886] | binds more weakly
AGCGGATAACAATTTCACACAGGAAACAGCATATGACCATGATTACGCCAAGCTCGAAATTAACCCTCACTAAAGGGAACAAAAGCTGGAGCTCTTAAGCTTAAGCGGATCCAGGCACTGCTTGAAACTCTGGAACGTGCCGAACGCCAGTCGCATAAATGACGATCGCTCCGTGTCCCTCCGGCAACAGGCATGCGCCCTGGCGTCGTGCCGCGCGGAACAAAAGGCGCCAATCGGCGTTTTGGCGACAATAACAAGCGCCGCGGCGGCGGCATCCATGGGAGATGGGAATGCAAGCCTCGGCGGCGCCTGTTGTGATCACCCCTCCAGTGGGGATCGACGCTCAGATGAGCGTCGCAGCGGCTCCAGCCATGGCCTCGGCGCGCATTTCCGCCGAAGACTGTGCTCGGCAACTCCAGCAGTTCTGTATCAACCCTGAATAGGAACGCGTCATGAAGAAGCTACTCGTCGTCTCTAGACTGCAGATGGTGAGCAAGGGCGAGGAGCTGTTCA (double strand) [SMc00795 / SMc00796] | binds more weakly
AGCGGATAACAATTTCACACAGGAAACAGCATATGACCATGATTACGCCAAGCTCGAAATTAACCCTCACTAAAGGGAACAAAAGCTGGAGCTCTTAAGCTTAAGGCACTGACGGTTCTCCTGCTGCTGGCCATGTGCGTCCAGCTCATCAAGCCGCTCGGCTTTCCGGGCCTCAGGCAGCGCCGCGATTTCTGGAAGATTGCCGTCTTCGCCATCGTCGTGATGATGGTCACGGTGCTCGTGCGTCCTTGAACTACTGCCGTGCCGCGCGGGATCTCGATTCTCCGGCGGCTCGGCGTTCCCCGAGAAACAGCAGCTTGGGCTAGGGCCGCGCTATTGTCGTCACCAAGTCGCTCTATCTCCGCACGACATGACGACAGGAAAAGGTTAAATTACCGTGCTCGGCCACAAGATGAAGATCGAGGCTCTGTTGGAACGTCGTCTCACCTCTAGACTGCAGATGGTGAGCAAGGGCGAGGAGCTGTTCA (double strand) [cyaF2] | binds
AGCGGATAACAATTTCACACAGGAAACAGCATATGACCATGATTACGCCAAGCTCGAAATTAACCCTCACTAAAGGGAACAAAAGCTGGAGCTCTTAAGCTTAATACGGGGGTCTGGTAAGCCTCGCACAACTGCCACCGGCTAATCGTCAGCCGTCGCCGGCTCTGCCGAGCGGCGCGGCACTGGCCGGAGCAAGAGGATCAATAGAACAGCGGATGATCTTCAGGCCCGGCTATTGCCGGGCCTTCGCTTATATTTTGCGAAGCTGAAATAGGTTGGTGCAGGTTTACAAAACACGCGGCGTTCATTACCTTGCCGCGCAGACGTTGAAACGGGGCTCTGCTTCGTCGTCACTTGCGGGGATAGCCCTATACTTGCCTGACCTTTCCCGTGGGGAGCCTAGCGCCCTCCGCATGAAATTGTTGTGCCGTTCCGGACAGTATTCGGAACCGGGACGTGTTGTGTGCGCGGTGCAAGGCCACCCGCATGCACGGAGAGCGGGGAAAAGGCGTTGCAACATCTGGAACCAGGATACAGGTCTAGACTGCAGATGGTGAGCAAGGGCGAGGAGCTGTTCA (double strand) [SMc00291] | binds more weakly
AGCGGATAACAATTTCACACAGGAAACAGCATATGACCATGATTACGCCAAGCTCGAAATTAACCCTCACTAAAGGGAACAAAAGCTGGAGCTCTTAAGCTTACCGGAAACATCGTCGCGGGCTAGTTATTTCGGATTATAAAGTATTGTTAATAGACGCATCATTCTGCACTGACGGACAGCGGACCCGCTGGTGCACGAAATTGACGCGCGGCAACTTTCCCTCACTTTTTTTGCATCGCAACATTTTATTGCGGCGCACAGTTGCTGAGGCTACCCGCTCAAACACGTGTAACAAAAGTTGATCGGGAAAAAAGGCCGGCCACACGCCCCAAGAGGTAGCACCCAAGGCAGCTTTCCGAAAGGCCGGGCAATTTTAGGGGAACTACGGCCGCGTTCCGCGCGCATCCACCTCACGCGGCAAACTGCCCCGGAGATGGGGAACTTATCCGCGATCACACCCGTTTGAATTGTGCGAAATGGAGCCAATGCTTAAAGGCGGCGGAAAGATTTCCGATGTATGCTCGACTGCAACAAAGTAGCGTTTCCCGGTTGAAGAGAAAAGCGGGCGCTAATATAGTGGCCAGGCAGGAGGAGAGGGCAACAACTCTTATGAGGTTCCCAATCGCAGACCCGAAGGTAGGTTAGCGCCATGTTCGCACCGCGTGTTCTAGACTGCAGATGGTGAGCAAGGGCGAGGAGCTGTTCA (double strand) [exoX / exoY] | binds more weakly
AGCGGATAACAATTTCACACAGGAAACAGCATATGACCATGATTACGCCAAGCTCGAAATTAACCCTCACTAAAGGGAACAAAAGCTGGAGCTCTTAAGCTTACGATCGGCTACGGCGTTTCCTCCGGCTGTATCCGCATGCGCAACGAGGATGTGGTCGATCTTTATGAGAGGGTGAAGGTCGGCACAAAAGTCATCGTGATATAGCGACTATGGATGCACAATACTTCTTCCGCGTTTTCTCTCTTCAACTCCCAAAAACGTGGTTTTGAAGCAACAGATGTTCCCTCAGATACAAGTCTTACCGAAATCGCCGCACTATAGAATGTATCGCGGGCGTCCACTTGCGGTTAAATCGCGTGGCTTGCTTGCAACGAGGGTTCAGAGGGAATCGTAAATGAGACGTCATGTCACGGGGATGTCTAGACTGCAGATGGTGAGCAAGGGCGAGGAGCTGTTCA (double strand) [SMc00925] | binds
AGCGGATAACAATTTCACACAGGAAACAGCATATGACCATGATTACGCCAAGCTCGAAATTAACCCTCACTAAAGGGAACAAAAGCTGGAGCTCTTAAGCTTACGTCGTAGTCTTCCCTGACGCGCACCGTGAACCCGAGAAGCGTCCCGGTCTCGAGCAGGCGGTCCAGGCGATTTTGCACGGTACCACGCGCCACGCCCAGCGCGTCGGAAAGTTTGGAAAGCGATGCCCGCCCGTCGGCGCGCAGATGCGCAATGATCCGGCGGTCCAGATCATCCGGGGTGTATTTTGCAACTGCTGAATCGCCAACTCCTGTTCTGCTCATATCGCACAATCCGACTGGAAAAATTGCTCAGTTCGGTGCCGAAAATAGCACATCTTTGCGCTTTCGACCAGCGCGCTCAATCGCTACCCTGTCCTGGAATACAGCAAGCCGCCAAGAGGAACCTCCATGTTCTCCCCGCTTCCCTCACTAGACTGCAGATGGTGAGCAAGGGCGAGGAGCTGTTCA (double strand) [ocd] | binds more weakly
AGCGGATAACAATTTCACACAGGAAACAGCATATGACCATGATTACGCCAAGCTCGAAATTAACCCTCACTAAAGGGAACAAAAGCTGGAGCTCTTAAGCTTAGCCAGTTTCGAAAGGGGCAGACCGCGGGTGGCGTACAAAAATTGCTGAAACTAACGAAGAGCCGCCAAGCGAGATATCGTGCCGTACTGGACCGGATCACGTTCGTCGGGCTTCTACTTGTTGTGCTCTAGTTTCTCAAGCATTCACGCCATATTCATCAATACAAAAAGTCACCCACGGAATCCCAAACGATCTGTAAAAGTTGAGGATGAGTGCACCATGATTCAGAAAATTCTTATTTTATATCGAGACAAATCTTTGCGTTCTGAGGGAGATTCGTGTTGCGGCGCCGCGACGTTGAATTTTTTGCGAAAATATTCGGTAATCGATTAACAAATATGTTTCGTCGATGATCGATAGTATTTGTTTACTTTATTGGCTTTTGAGCGCACTGTAAAAATCTGGATTGCTATTGGCTCCTGGTCTAGACTGCAGATGGTGAGCAAGGGCGAGGAGCTGTTCA (double strand) [SMa1635] | binds more weakly
AGCGGATAACAATTTCACACAGGAAACAGCATATGACCATGATTACGCCAAGCTCGAAATTAACCCTCACTAAAGGGAACAAAAGCTGGAGCTCTTAAGCTTAGCGCAGTCTCTTGCGCATCCTCCGCAGTCGAAGGGCAACTCCTTGGAAAATCTGGTTTTTTCCGGAAGGTTCCAACTGGCACGCATTGTGCATATTCAGTTCCGTGTCCAGAGGGGACCACAATAAGACAGCGCCCAAGAAGGTCGCGACAAGGGCCGCCGCCGATCGCCTGTGATCCCGGATGTACGGACACGGAGATCGGTTGGCGGCCCTCATTTTCCCACCTGTCGCATTGGCGAAGCGCCCCGGCTCGACTATCTAATACATAACGCCCTAGATCGGGTGCGATTTGGGCCAGCGATTGCAGCAGTCAAAACGTTGCGCGCCAACGAAAGAGCAAGAGGCCGACATGCCGGACGTCACCTCTAGACTGCAGATGGTGAGCAAGGGCGAGGAGCTGTTCA (double strand) [SMc00876] | binds more weakly
AGCGGATAACAATTTCACACAGGAAACAGCATATGACCATGATTACGCCAAGCTCGAAATTAACCCTCACTAAAGGGAACAAAAGCTGGAGCTCTTAAGCTTAGCTTTTGCGTCGTGATTCGCAGCATGCCCATGCTCAATGCCTATCATCGGGCTCAAAATTGTCAATCTTCAGCTCACATCGACACGCAGGGCGCATCGACGTGTGGCGCGACTACAACGGGCGAACTTCGCCGCTGCAACCCGATTTCGAGTTCTAGGGCTTACAACGATGGCAAGGTCAATCGGAAAATATCGGGGACGAGAAAAAAGTCGAAAGTCTCAGGTGCCGTGGCATGCCCGCCACGGTCAGGAAATTGTTAACCATATTCTCGGTTCCTCGGGGAACAGCCCGGCCGGCGCCACAGGAATAACTCTATTCCGCGCTCTTTCGAACGCGGAAGCAAAACAACAGGTCGGAGAAGATGGATATGATCAAATCGGGTCTCGGCTCTAGACTGCAGATGGTGAGCAAGGGCGAGGAGCTGTTCA (double strand) [SMc02278 / SMc02279] | binds
